Reference: patent US12295967B2, “Pharmaceutical composition for prevention or treatment of flavivirus infection” (priority 2018, dated 2025)
At least one structure is not confirmed: it was looked up by name or label, or the drawing left a doubt.

System: Dengue virus
Experiment: Histological analysis (H & E) of spleen and liver of dengue virus infected mice
Type: in vivo
Conditions: H & E staining, FIG. 9

With `CC(C)(O)c1ccccc1CC[C@@H](SCC1(CC(=O)O)CC1)c1cccc(/C=C/c2ccc3ccc(Cl)cc3n2)c1` [Montelukast] the “virus replication (histology)” value was “reduced”.
